Measurements reported in the supplement of paper PMC12819154, “High-throughput peptide-centric local stability assay extends protein–ligand identification to membrane proteins, tissues and bacteria” (Nature Structural & Molecular Biology, 2025).
The list shows a part of the results. Small differences around the control level are noise.

Protein sequences, listed by entry. Tags and fused reporters are not part of them. Lines headed by an entry give the natural chain unless they say otherwise; changes in a name come on top.
UniProt Q9H0A8, whole entry: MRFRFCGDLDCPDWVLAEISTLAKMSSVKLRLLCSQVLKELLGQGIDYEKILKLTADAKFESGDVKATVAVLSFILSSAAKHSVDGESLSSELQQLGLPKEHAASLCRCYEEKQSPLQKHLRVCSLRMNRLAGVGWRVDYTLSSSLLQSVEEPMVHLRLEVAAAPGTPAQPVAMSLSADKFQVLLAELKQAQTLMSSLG
UniProt Q9BZ95: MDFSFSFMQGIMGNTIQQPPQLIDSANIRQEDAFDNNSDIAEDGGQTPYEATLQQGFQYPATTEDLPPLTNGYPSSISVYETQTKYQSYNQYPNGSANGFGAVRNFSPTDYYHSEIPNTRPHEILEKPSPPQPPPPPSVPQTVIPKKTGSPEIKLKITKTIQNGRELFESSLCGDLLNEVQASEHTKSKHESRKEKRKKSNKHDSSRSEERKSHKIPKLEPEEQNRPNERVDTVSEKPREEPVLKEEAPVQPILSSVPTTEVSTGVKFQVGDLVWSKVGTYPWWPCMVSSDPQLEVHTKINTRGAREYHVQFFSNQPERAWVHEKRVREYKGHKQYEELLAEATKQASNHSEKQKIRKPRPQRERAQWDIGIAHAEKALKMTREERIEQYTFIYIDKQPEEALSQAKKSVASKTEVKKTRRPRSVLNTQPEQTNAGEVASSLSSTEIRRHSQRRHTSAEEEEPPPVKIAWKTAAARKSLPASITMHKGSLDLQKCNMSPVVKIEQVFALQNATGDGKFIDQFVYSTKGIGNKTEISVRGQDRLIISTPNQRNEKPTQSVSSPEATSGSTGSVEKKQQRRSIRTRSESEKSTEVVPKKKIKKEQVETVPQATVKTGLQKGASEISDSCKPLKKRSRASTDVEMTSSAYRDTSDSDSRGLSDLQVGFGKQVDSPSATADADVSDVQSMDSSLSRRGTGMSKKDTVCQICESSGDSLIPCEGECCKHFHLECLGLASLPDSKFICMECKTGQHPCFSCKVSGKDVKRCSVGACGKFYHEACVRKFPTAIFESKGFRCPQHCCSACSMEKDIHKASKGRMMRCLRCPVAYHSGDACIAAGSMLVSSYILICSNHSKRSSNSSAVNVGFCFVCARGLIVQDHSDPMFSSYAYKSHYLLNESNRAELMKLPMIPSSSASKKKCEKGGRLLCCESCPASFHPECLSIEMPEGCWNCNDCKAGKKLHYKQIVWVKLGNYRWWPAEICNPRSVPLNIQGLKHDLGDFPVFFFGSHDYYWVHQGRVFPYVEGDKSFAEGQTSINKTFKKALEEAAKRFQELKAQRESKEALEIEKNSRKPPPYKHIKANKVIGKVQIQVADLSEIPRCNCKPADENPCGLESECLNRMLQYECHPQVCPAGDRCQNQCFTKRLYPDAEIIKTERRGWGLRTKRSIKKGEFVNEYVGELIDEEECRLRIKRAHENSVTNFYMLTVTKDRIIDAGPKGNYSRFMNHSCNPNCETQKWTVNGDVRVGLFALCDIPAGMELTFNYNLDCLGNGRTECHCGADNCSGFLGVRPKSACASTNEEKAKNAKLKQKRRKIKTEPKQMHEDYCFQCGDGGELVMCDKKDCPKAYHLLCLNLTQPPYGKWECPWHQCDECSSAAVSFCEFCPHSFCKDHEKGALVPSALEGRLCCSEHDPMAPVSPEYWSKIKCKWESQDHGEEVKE
UniProt Q9BY66, whole entry: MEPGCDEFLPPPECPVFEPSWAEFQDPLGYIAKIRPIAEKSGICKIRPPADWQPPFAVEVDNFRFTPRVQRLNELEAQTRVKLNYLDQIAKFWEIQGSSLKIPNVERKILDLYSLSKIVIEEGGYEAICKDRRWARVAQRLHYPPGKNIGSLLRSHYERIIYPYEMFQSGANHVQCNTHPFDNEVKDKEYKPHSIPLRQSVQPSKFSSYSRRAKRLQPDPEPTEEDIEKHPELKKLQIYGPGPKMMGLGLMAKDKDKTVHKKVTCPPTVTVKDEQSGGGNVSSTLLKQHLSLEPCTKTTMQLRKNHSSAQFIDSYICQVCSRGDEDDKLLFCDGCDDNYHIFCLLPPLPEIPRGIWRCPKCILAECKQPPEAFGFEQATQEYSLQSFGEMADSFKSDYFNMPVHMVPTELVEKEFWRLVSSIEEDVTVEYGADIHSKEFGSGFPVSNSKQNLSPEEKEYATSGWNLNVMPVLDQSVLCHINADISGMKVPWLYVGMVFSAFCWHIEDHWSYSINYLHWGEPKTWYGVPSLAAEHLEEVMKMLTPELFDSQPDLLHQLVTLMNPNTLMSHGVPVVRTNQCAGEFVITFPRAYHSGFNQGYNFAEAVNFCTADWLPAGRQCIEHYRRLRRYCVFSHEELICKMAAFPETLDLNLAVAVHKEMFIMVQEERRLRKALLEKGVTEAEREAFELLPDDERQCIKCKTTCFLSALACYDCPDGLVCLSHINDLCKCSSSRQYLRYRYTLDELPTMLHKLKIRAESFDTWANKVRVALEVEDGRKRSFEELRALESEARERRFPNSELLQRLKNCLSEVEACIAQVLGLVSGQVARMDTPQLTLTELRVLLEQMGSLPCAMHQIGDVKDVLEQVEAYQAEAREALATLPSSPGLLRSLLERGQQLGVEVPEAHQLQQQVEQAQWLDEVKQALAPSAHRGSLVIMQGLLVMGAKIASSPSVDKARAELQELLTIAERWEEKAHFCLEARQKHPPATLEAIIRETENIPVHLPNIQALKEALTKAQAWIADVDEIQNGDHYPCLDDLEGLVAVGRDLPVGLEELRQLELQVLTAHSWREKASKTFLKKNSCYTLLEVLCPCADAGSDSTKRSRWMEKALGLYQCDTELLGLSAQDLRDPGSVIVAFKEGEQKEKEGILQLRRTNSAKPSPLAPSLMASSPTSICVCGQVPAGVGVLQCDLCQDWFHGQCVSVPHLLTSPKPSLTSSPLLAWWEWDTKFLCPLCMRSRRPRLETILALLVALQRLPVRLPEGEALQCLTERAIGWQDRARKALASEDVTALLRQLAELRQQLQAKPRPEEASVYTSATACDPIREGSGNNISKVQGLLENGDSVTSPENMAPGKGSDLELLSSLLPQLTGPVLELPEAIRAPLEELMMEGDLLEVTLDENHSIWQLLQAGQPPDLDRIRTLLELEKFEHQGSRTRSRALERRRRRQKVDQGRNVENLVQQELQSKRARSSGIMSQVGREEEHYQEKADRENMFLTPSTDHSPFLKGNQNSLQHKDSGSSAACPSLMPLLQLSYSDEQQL
UniProt Q9GZU8: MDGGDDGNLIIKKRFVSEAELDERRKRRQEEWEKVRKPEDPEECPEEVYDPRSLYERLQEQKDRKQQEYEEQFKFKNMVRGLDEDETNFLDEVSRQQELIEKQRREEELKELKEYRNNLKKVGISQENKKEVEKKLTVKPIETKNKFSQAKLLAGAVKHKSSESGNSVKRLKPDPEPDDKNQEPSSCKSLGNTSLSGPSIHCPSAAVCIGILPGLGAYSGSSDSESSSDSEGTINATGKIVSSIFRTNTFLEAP
UniProt Q9BXL7: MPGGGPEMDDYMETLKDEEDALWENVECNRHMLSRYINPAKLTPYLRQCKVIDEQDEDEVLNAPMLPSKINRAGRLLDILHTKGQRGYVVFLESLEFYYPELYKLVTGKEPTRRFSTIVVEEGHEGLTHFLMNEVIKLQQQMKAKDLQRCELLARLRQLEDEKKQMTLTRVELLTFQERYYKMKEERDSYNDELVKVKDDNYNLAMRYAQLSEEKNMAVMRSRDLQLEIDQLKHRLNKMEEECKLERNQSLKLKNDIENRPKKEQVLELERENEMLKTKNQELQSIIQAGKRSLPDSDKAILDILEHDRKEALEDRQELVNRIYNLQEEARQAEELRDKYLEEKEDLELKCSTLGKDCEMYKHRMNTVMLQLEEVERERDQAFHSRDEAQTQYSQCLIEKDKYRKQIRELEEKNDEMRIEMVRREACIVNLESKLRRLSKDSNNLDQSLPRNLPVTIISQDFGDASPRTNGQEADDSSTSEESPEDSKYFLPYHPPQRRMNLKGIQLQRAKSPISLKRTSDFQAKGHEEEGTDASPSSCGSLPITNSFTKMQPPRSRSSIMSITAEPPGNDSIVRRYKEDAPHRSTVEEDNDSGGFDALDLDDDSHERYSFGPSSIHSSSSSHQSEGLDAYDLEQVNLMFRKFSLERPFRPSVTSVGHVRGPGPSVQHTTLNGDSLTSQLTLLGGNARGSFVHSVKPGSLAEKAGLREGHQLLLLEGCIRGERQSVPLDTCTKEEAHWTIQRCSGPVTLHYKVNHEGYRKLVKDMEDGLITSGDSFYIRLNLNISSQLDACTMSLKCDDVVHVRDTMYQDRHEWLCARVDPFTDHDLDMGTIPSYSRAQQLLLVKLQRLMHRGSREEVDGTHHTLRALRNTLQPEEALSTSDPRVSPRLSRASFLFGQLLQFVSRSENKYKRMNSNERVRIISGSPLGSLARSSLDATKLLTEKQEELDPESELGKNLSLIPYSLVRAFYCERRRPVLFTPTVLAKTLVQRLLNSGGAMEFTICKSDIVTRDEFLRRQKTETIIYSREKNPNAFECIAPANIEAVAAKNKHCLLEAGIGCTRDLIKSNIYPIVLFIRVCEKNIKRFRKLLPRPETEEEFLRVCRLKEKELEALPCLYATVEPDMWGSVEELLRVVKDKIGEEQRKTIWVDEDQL
UniProt Q9BXS6: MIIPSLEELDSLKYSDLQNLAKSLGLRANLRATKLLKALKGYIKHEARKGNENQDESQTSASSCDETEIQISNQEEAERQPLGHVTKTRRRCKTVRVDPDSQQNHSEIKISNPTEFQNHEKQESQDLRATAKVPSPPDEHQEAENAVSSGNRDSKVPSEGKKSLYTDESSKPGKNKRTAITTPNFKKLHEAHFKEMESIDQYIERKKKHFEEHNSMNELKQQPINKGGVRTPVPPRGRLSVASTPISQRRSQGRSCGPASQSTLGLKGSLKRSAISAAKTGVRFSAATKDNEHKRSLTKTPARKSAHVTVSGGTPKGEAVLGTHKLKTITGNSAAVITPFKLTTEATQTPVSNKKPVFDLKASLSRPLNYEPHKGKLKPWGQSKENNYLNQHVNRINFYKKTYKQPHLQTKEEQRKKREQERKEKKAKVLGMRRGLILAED
UniProt Q9GZT8: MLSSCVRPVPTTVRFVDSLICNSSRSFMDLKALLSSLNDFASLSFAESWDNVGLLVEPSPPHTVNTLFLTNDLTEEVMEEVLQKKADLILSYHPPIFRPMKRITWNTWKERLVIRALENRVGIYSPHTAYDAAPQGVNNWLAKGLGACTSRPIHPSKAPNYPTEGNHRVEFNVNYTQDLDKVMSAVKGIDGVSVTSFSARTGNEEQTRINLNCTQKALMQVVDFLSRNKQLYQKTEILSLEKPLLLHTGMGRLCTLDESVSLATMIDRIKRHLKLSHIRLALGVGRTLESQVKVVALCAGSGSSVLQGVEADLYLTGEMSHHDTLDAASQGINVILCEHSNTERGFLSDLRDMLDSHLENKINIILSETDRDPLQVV
UniProt Q9BVN2: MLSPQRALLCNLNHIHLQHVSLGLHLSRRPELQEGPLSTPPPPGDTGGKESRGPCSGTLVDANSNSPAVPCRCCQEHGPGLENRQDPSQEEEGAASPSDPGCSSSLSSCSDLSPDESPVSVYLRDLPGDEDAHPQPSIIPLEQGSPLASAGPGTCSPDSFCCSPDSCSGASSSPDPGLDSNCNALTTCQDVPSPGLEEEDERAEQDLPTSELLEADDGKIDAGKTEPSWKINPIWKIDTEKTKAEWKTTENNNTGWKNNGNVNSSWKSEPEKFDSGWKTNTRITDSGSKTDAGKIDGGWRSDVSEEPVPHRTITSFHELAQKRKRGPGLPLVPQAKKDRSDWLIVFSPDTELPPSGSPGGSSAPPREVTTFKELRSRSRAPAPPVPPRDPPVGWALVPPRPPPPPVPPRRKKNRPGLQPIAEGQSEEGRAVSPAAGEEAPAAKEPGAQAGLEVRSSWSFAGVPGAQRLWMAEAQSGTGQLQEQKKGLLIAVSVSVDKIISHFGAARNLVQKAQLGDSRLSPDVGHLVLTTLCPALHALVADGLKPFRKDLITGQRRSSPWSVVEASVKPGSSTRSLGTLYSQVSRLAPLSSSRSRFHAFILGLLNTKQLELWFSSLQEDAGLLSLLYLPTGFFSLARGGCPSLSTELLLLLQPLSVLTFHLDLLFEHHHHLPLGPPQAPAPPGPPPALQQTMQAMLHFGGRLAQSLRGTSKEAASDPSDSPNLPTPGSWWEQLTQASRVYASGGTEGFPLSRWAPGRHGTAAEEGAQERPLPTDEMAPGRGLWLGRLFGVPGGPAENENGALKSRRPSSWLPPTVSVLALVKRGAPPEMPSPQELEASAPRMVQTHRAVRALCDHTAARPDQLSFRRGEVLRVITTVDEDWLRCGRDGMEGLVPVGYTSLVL

compound: Cc1nc(Nc2ncc(C(=O)Nc3c(C)cccc3Cl)s2)cc(N2CCN(CCO)CC2)n1 [dasatinib]; test: log2 fold change of tryptic peptide abundance, ligand vs vehicle (limited proteolysis) (log2 ratio); higher = more trypsin-susceptible (destabilized); details: ligand concentration: 5 uM; sample: K562 cleared lysate

Target | log2 fold change
COMMD4 (peptide sequence: EHAASLCRCYEEK, peptide start residue: 101) (UniProt Q9H0A8) | 0.174
NSD3 (peptide sequence: QYEELLAEATK, peptide start residue: 335) (UniProt Q9BZ95) | 0.454
KDM5D (peptide sequence: YCVFSHEELICK, peptide start residue: 639) (UniProt Q9BY66) | 0.307
NACA4P (peptide sequence: SKNILFVITKPDVYK, peptide start residue: 1962) (UniProt Q9BZK3) | -0.105
UniProt Q9GZU8 (peptide sequence: SSESGNSVK, peptide start residue: 161) | 0.175
CEP295 (peptide sequence: SDSTIPLSHPK, peptide start residue: 1225) (UniProt Q9C0D2) | -1.04
CARD11 (peptide sequence: LLTEKQEELDPESELGK, peptide start residue: 940) (UniProt Q9BXL7) | -0.203
NUSAP1 (peptide sequence: LTTEATQTPVSNKKPVFDLK, peptide start residue: 342) (UniProt Q9BXS6) | 0.246
NIF3L1 (peptide sequence: FVDSLICNSSR, peptide start residue: 15) (UniProt Q9GZT8) | -0.235
RUSC1 (peptide sequence: SRFHAFILGLLNTK, peptide start residue: 594) (UniProt Q9BVN2) | -0.0604
